Taken from: PubChem BioAssay AID686938 (Drosophila RNAi Screening Center, 2013)
The screen tested about 23,000 reagents; below is an unselected part of those with a known target gene and a result. Of all reagents, 75 (0.33%) got an active call. 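Raw plate signals without normalisation; calls rest on plate z-scores that were not deposited; ratio present for only 364 wells.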 Not given: the dose of the treatment.

Screen: 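Fly genes required for calcium entry once internal stores are emptied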 (primary screen)
Cell system: Drosophila S2R+ cells
Reagent: long dsRNA against Drosophila genes, about 0.25 µg dsRNA per well, roughly 10,000 cells
Timing: 5 days of knock-down before the calcium assay
Challenge: thapsigargin (SERCA pump blocker) to empty calcium stores; entry signal taken 4 min after adding it
Detection: 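Per-well fluo-4 fluorescence in two replicates, unnormalised, measured in resting cells and 4 min after store depletion by the SERCA blocker thapsigargin; ratio of the two present in few wells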
Scale: calcium entry signal: higher = stronger calcium signal after store depletion; entry to resting ratio: higher = more calcium entry relative to resting level; resting calcium signal: higher = higher resting calcium signal
Hit rule: 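Hit if the duplicate-averaged plate z-score for entry over resting signal is under −3; wells with weak total dye signal (Fmax z < −2) or more than 5 off-targets removed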
Meaning of the calls: active = strongly reduced calcium entry; inactive = no strong reduction

Gene	dsRNA	calcium entry signal, replicate 1 (fluorescence units)	calcium entry signal, replicate 2 (fluorescence units)	entry to resting ratio	resting calcium signal, replicate 1 (fluorescence units)	resting calcium signal, replicate 2 (fluorescence units)	activity call
mof (males absent on the first)	DRSC18795	2.84e7	3.35e7		1.78e7	2.01e7	inactive
CR43142 (pseudo)	DRSC00962	2.91e7	3.33e7		1.77e7	1.56e7	inactive
CG7133	DRSC11798	3.82e7	4.72e7		1.79e7	3.26e7	inactive
Ubqn (Ubiquilin)	DRSC19581	2.31e7	2.48e7		1.22e7	1.17e7	inactive
CG6685	DRSC10695	2.71e7	3.79e7		1.43e7	1.64e7	inactive
CG6700	DRSC02980	4.66e7			2.18e7		inactive
Fuca (alpha-L-fucosidase)	DRSC10591	4.23e7	3.96e7		2.10e7	1.72e7	inactive
CG7542	DRSC10868	5.24e7	7.10e7		2.33e7	2.86e7	inactive
CG7579	DRSC10885	3.92e7	5.21e7		1.91e7	2.24e7	inactive
Kank	DRSC05513	2.82e7	4.89e7		1.27e7	2.12e7	inactive
Kank	DRSC05933	4.66e7	4.12e7		2.06e7	2.08e7	inactive
CG40198	DRSC21068	6.71e7	4.72e7		2.78e7	1.93e7	inactive
CG13337	DRSC06371	3.48e7	4.97e7		1.87e7	2.15e7	inactive
mRpL4 (mitochondrial ribosomal protein L4)	DRSC03562	3.93e7			2.05e7		inactive
Dgp-1	DRSC07400	5.37e7	5.05e7		2.30e7	2.35e7	inactive
Trpgamma (Transient receptor potential cation channel gamma)	DRSC03626	3.11e7	2.27e7		1.47e7	1.15e7	inactive
Cap-D2 (CAP-D2 condensin subunit)	DRSC15401	2.95e7	2.48e7		1.62e7	1.43e7	inactive
zuc (zucchini)	DRSC02160	4.15e7			1.92e7		inactive
GstE3 (Glutathione S transferase E3)	DRSC06673	5.53e7	6.51e7		2.31e7	2.82e7	inactive
CG7768	DRSC10914	2.36e7	3.41e7		1.21e7	2.30e7	inactive
lobo (lost boys)	DRSC14662	3.53e7	7.23e7		1.94e7	3.00e7	inactive
lobo (lost boys)	DRSC14663	4.52e7	7.52e7		2.25e7	3.03e7	inactive
fidipidine	DRSC07618	4.45e7	3.93e7		1.93e7	1.97e7	inactive
Cyp9h1 (Cytochrome P450 9h1)	DRSC07391	3.15e7	3.54e7		1.69e7	1.71e7	inactive
Pli (Pellino)	DRSC16792	3.29e7	3.81e7		1.69e7	1.68e7	inactive
bur (burgundy)	DRSC03163	2.74e7			1.31e7		inactive

Targets above whose gene name starts with C or c:
Gene	dsRNA	calcium entry signal, replicate 1 (fluorescence units)	calcium entry signal, replicate 2 (fluorescence units)	entry to resting ratio	resting calcium signal, replicate 1 (fluorescence units)	resting calcium signal, replicate 2 (fluorescence units)	activity call
CR43142 (pseudo)	DRSC00962	2.91e7	3.33e7		1.77e7	1.56e7	inactive
CG7133	DRSC11798	3.82e7	4.72e7		1.79e7	3.26e7	inactive
CG6685	DRSC10695	2.71e7	3.79e7		1.43e7	1.64e7	inactive
CG6700	DRSC02980	4.66e7			2.18e7		inactive
CG7542	DRSC10868	5.24e7	7.10e7		2.33e7	2.86e7	inactive
CG7579	DRSC10885	3.92e7	5.21e7		1.91e7	2.24e7	inactive
CG40198	DRSC21068	6.71e7	4.72e7		2.78e7	1.93e7	inactive
CG13337	DRSC06371	3.48e7	4.97e7		1.87e7	2.15e7	inactive
Cap-D2 (CAP-D2 condensin subunit)	DRSC15401	2.95e7	2.48e7		1.62e7	1.43e7	inactive
CG7768	DRSC10914	2.36e7	3.41e7		1.21e7	2.30e7	inactive
Cyp9h1 (Cytochrome P450 9h1)	DRSC07391	3.15e7	3.54e7		1.69e7	1.71e7	inactive

Additional results follow.
Gene	dsRNA	calcium entry signal, replicate 1 (fluorescence units)	calcium entry signal, replicate 2 (fluorescence units)	entry to resting ratio	resting calcium signal, replicate 1 (fluorescence units)	resting calcium signal, replicate 2 (fluorescence units)	activity call
Fmo-1 (Flavin-containing monooxygenase 1)	DRSC04328	3.43e7			1.62e7		inactive
Orco (Odorant receptor co-receptor)	DRSC12358	4.58e7	4.20e7		2.12e7	1.88e7	inactive
CG15739	DRSC19705	3.44e7	4.30e7		1.77e7	1.85e7	inactive
CG31533	DRSC13018	3.30e7	4.08e7		1.98e7	1.85e7	inactive
CG14566	DRSC11727	3.32e7	5.37e7		1.55e7	2.46e7	inactive
CG8916	DRSC20120	3.45e7	3.74e7		1.70e7	1.54e7	inactive
CG9992	DRSC20226	4.14e7	4.21e7		1.82e7	2.13e7	inactive
CG9992	DRSC21643	3.06e7	3.54e7		1.76e7	1.73e7	inactive
cysu (Curly Su)	DRSC15902	4.22e7	4.88e7		2.02e7	7.46e7	inactive
CG11655	DRSC19413	2.50e7	2.86e7		1.33e7	1.33e7	inactive
qvr (quiver)	DRSC05280	4.14e7	5.41e7		2.16e7	2.23e7	inactive
CG6839	DRSC10723	3.60e7	4.12e7		1.62e7	2.92e7	inactive
CG30371	DRSC06835	4.19e7	4.07e7		1.94e7	1.79e7	inactive
CG34133	DRSC16319	3.56e7	4.36e7		1.71e7	2.14e7	inactive
CG34133	DRSC22239	3.22e7	4.31e7		1.55e7	2.47e7	inactive
CG31624	DRSC02617	4.45e7			2.01e7		inactive
CG31272	DRSC16058	3.52e7	3.81e7		1.79e7	2.04e7	inactive
Ufl1 (UFM1 specific ligase 1)	DRSC12527	4.55e7	5.58e7		2.00e7	2.54e7	inactive
aub (aubergine)	DRSC03486	4.39e7			1.86e7		inactive
CG34288	DRSC13564	4.12e7	3.56e7		2.12e7	1.65e7	inactive
Miro (Mitochondrial Rho)	DRSC15795	1.84e7	2.36e7		9.91e6	1.07e7	inactive
COX7B (Cytochrome c oxidase subunit 7B)	DRSC10895	4.07e7	3.79e7		1.69e7	1.77e7	inactive
Nthl1 (Nth-like DNA glycosylase 1)	DRSC03183	4.42e7	4.24e7		2.03e7	1.75e7	inactive
Npc2g (Niemann-Pick type C-2g)	DRSC14296	4.13e7	5.58e7		2.17e7	2.35e7	inactive
CG14313	DRSC14792	3.42e7	4.33e7		7.78e7	1.83e7	inactive
Tmem214 (Transmembrane protein 214)	DRSC02924	2.89e7	3.03e7		1.26e7	1.32e7	inactive
Tmem214 (Transmembrane protein 214)	DRSC02925	3.09e7	3.26e7		1.39e7	1.42e7	inactive
CG15484	DRSC02494	5.39e7	5.06e7		2.50e7	2.30e7	inactive
CG15484	DRSC22836	2.59e7	3.49e7		1.33e7	1.54e7	inactive
gry (gryzun)	DRSC08028	3.31e7	2.53e7		1.38e7	1.21e7	inactive
gry (gryzun)	DRSC08518	3.68e7	2.41e7		2.46e7	1.20e7	inactive
Lgr4 (Leucine-rich repeat-containing G protein-coupled receptor 4)	DRSC18969	3.22e7	3.71e7		1.54e7	1.64e7	inactive
Lgr4 (Leucine-rich repeat-containing G protein-coupled receptor 4)	DRSC18970	4.10e7	3.20e7		2.09e7	1.60e7	inactive
Lgr4 (Leucine-rich repeat-containing G protein-coupled receptor 4)	DRSC19884	4.44e7	5.95e7		2.03e7	2.88e7	inactive
l(3)04053 (lethal (3) 04053)	DRSC11640	2.92e7	4.58e7		1.43e7	2.51e7	inactive
Cap-D3 (Chromosome associated protein D3)	DRSC02349	2.02e7	2.32e7		1.11e7	9.89e6	inactive
CG43373	DRSC09869	6.35e7	7.00e7		2.70e7	2.53e7	inactive
CG43373	DRSC09885	5.14e7	7.11e7		2.53e7	2.69e7	inactive
wdb (widerborst)	DRSC14163	1.92e7	3.52e7		1.11e7	1.51e7	inactive
ph-d (polyhomeotic distal)	DRSC18819	3.88e7	4.40e7	2.1	1.81e7	1.76e7	inactive
ph-d (polyhomeotic distal)	DRSC23191	3.70e7	4.48e7		1.62e7	1.82e7	inactive
CG8664	DRSC20116	3.91e7	3.70e7		2.01e7	1.63e7	inactive
CG3739	DRSC15510	3.28e7	3.64e7		4.33e7	1.66e7	inactive
EMC1 (ER membrane protein complex subunit 1)	DRSC15455	2.36e7	2.54e7		8.64e6	1.21e7	inactive
CG32206	DRSC09602	3.17e7	4.89e7		1.73e7	2.13e7	inactive
CG32206	DRSC10094	2.56e7	4.27e7		1.20e7	1.78e7	inactive
CG32206	DRSC10095	2.40e7	4.24e7		1.19e7	1.83e7	inactive
CG32206	DRSC10096	2.33e7	4.14e7		1.18e7	1.77e7	inactive
CG32206	DRSC11080	2.23e7	4.04e7		1.10e7	1.71e7	inactive
